Measured values taken from PMC11984905, “Chiral Switch of Gadopiclenol: New Standards in MRI Probes” (Advanced Science, 2025).

Test: 1H NMRD profiles and 17O NMR relaxometry in water
Format: physicochemical
Conditions: for Δ^2 / τv / ^SSτR: 298 K
Procedure: The magnetic‐field dependence of the longitudinal relaxation rate of water protons (^1H NMRD) were measured in aqueous solution by using a variable field relaxometer equipped with an HTS‐110 3T Metrology Cryogen‐free Superconducting Magnet (Mede, Italy), operating in the overall range of proton Larmor frequencies of 20–120 MHz (0.47–3.00 T). The measurements were performed using the standard inversion recovery sequence (20 experiments, 3 scans) with a 90° pulse width of 3.5 µs. The temperature was controlled with a Stelar VTC‐91 heater airflow. Additional points in the 0.01–10 MHz frequency range were collected on a Fast‐Field Cycling (FFC) Stelar SmarTracer Relaxometer. T 1 values at 500 MHz were collected on a Bruker Avance III NMR spectrometer operating at 11.7 T. The concentration of Gd^3+ in the solutions was determined by using bulk magnetic susceptibility (BMS) shift measurements performed at 11.7 T. For the measurements in the biological fluid, lyophilized plasma matrix (Siemens Healthcare) was added to 1 mL of [Gd(ent‐L2)] (1.0 mM) or Seronorm (Sero) was solubilized in 5 mL [Gd(ent‐L2)] (1.0 mM) solution. ^1H NMRD of the final solution was measured at 310 K.
The spectra were acquired on a Bruker Avance III spectrometer (11.7 T) using a 5 mm probe under temperature control. An aqueous solution of the complexes ([GdL] = 10–15 mM) was enriched to ca. 2.0% of the ^17O isotope (Cambridge Isotope). The transverse relaxation rates (R 2) were measured as a function of temperature in the 278−350 K range. The simultaneous fit of ^1H NMRD and ^17O NMR profiles data was performed using the Micromath Scientist software (version 2.0, Salt Lake City, UT, USA).

| SMILES | AO1/h | AO2/h | ΔHM1 [kcal/mol] | ΔHM2 [kcal/mol] | Δ^2 | τv [ps] | ^SSτR [ps] |
| --- | --- | --- | --- | --- | --- | --- | --- |
| O=C([O-])CCC(C(=O)[O-])N1CCN(C(CCC(=O)[O-])C(=O)[O-])Cc2cccc(n2)CN(C(CCC(=O)[O-])C(=O)[O-])CC1.[Gd+3] (mixture of isomers) [[Gd(rac‐L1)]^3−] [2,2’,2’’-[3,6,9,15-tetraazabicyclo[9.3.1]pentadeca-1(15),11,13-triene-3,6,9-triyl]tris(4-carboxybutanoate)gadolinium] | -3.5±0.1 10^6 rad s^-1 | -2.5±0.1 10^6 rad s^-1 | 6.45 ± 0.24 | 3.35 ± 0.72 | 2.1±0.1 10^19 s^-2 | 34±2 |  |
| O=C([O-])CCC(C(=O)[O-])N1CCN(C(CCC(=O)[O-])C(=O)[O-])Cc2cccc(n2)CN(C(CCC(=O)[O-])C(=O)[O-])CC1.[Gd+3] (racemic) [[Gd(ent‐L1)]^3−] | -3.8±0.1 10^6 rad s^-1 | -2.7±0.1 10^6 rad s^-1 | 7.41 ± 0.48 | 4.54 ± 0.48 | 1.9±0.1 10^19 s^-2 | 37±1 | 68±2 |
| O=C(CCC(C(=O)[O-])N1CCN(C(CCC(=O)NCC(O)CO)C(=O)[O-])Cc2cccc(n2)CN(C(CCC(=O)NCC(O)CO)C(=O)[O-])CC1)NCC(O)CO.[Gd+3] (stereo not drawn) [[Gd(ent‐L2)]] | -3.8±0.1 10^6 rad s^-1 | -2.5±0.1 10^6 rad s^-1 | 7.41 ± 0.24 | 5.5 ± 0.24 | 2.4±0.1 10^19 s^-2 | 38±1 | 82±1 |
